Experimental data from patent publication US20150291697A1.
These are yes or no findings as the source states them, for the method shown. Some binding calls cover weakened binding; strength is not graded here.

Target: human transferrin receptor (TfR) on cells (human) (UniProt P02786)
Assay: flow cytometry on TfR-expressing K562 cells, Alexa488-anti-human IgG

binding: binds
B1: TfR433 antibody (antibody, V domains shown)
VH: QVQLVQSGGGVVQPGRSLRLSCAASGFPFKSYGMHWVRQAPGKGLEWVAVISFDGSSKYYADSVKGRFTISRDNSKNTLYLQMNSLRGEDTAVYYCARDSNFWSGYYSPVDVWGQGTTVTVSS
VL: DIQMTQSPSSLSASVGDRVTITCRASQIASNSVQWYQQKPGTAPKTVIYEDTQLQSGVPSRFSGSGSGTEFTLTINSLQPEDFATYYCQSYNSAYQWVFGQGTKVEIKR
